These are yes or no findings as the source states them, for the method shown. In cells and extracts the contact can be indirect. A yes stands for co-enrichment or nearness to the bait. Other partners may have been found.
B1: rpP0 (protein, UniProt P05317 1-312)
chain: MGGIREKKAEYFAKLREYLEEYKSLFVVGVDNVSSQQMHEVRKELRGRAVVLMGKNTMVRRAIRGFLSDLPDFEKLLPFVKGNVGFVFTNEPLTEIKNVIVSNRVAAPARAGAVAPEDIWVRAVNTGMEPGKTSFFQALGVPTKIARGTIEIVSDVKVVDAGNKVGQSEASLLNLLNISPFTFGLTVVQVYDNGQVFPSSILDITDEELVSHFVSAVSTIASISLAIGYPTLPSVGHTLINNYKDLLAVAIAASYHYPEIEDLVDRIENPEKYAAAAPAATSAASGDAAPAEEAAAEEEEESDDDMGFGLFD
B2: Noc2 (protein, UniProt P39744 1-710)
chain: MGKVSKSTKKFQSKHLKHTLDQRRKEKIQKKRIQGRRGNKTDQEKADAAGTREQQQLKKSAKEEVFKDMSVETFFEKGIEIPKENKKLKKKTTKEQSDEDSSSSEEEEDMGQSMAKLAEKDPEFYKYLEENDKDLLDFAGTNPLDGIDSQDEGEDAERNSNIEEKSEQMELEKEKIELSLKLVRKWKKQLHDSPSLKLLRNIISAFKVAVNLNKEENIEDYKYAITDEKAFHELMFMVLKDVPQAIQKMAPYKIVKGARTLPNGGNVSRVSSIVKSHAGSLLILLNDITNTETAALVLHSVNELMPYLLSYRRILKELIKSIVGVWSTTRELETQIASFAFLINTTKEFKKSMLETTLKTTYSTFIKSCRKTNMRSMPLINFQKNSAAELFGIDEVLGYQVGFEYIRQLAIHLRNTMNATTKKSSKINSAEAYKIVYNWQFCHSLDFWSRVLSFACQPEKENGSESPLRQLIYPLVQVTLGVIRLIPTPQFFPLRFYLIKSLIRLSQNSGVFIPIYPLLSEILTSTAFTKAPKKSPNLAAFDFEHNIKCTQAYLNTKIYQEGLSEQFVDLLGDYFALYCKNIAFPELVTPVIISLRRYIKTSTNVKLNKRLSTVVEKLNQNSTFIQEKRSDVEFGPTNKSEVSRFLNDVAWNKTPLGSYVAVQREVKEEKARLMRESMEEQDKERETEEAKLLNSLESDDDNEDVEMSDA
B3: Nsa2 (protein, UniProt P40078 1-261)
chain: MPQNDYIERHIKQHGKRLDHEERKRKREARESHKISERAQKLTGWKGKQFAKKRYAEKVSMRKKIKAHEQSKVKGSSKPLDTDGDALPTYLLDREQNNTAKAISSSIKQKRLEKADKFSVPLPKVRGISEEEMFKVIKTGKSRSKSWKRMITKHTFVGEGFTRRPVKMERIIRPSALRQKKANVTHPELGVTVFLPILAVKKNPQSPMYTQLGVLTKGTIIEVNVSELGMVTAGGKVVWGKYAQVTNEPDRDGCVNAVLLV
B4: Rsa4 (protein, UniProt P25382 1-515)
chain: MSTLIPPPSKKQKKEAQLPREVAIIPKDLPNVSIKFQALDTGDNVGGALRVPGAISEKQLEELLNQLNGTSDDPVPYTFSCTIQGKKASDPVKTIDITDNLYSSLIKPGYNSTEDQITLLYTPRAVFKVKPVTRSSSAIAGHGSTILCSAFAPHTSSRMVTGAGDNTARIWDCDTQTPMHTLKGHYNWVLCVSWSPDGEVIATGSMDNTIRLWDPKSGQCLGDALRGHSKWITSLSWEPIHLVKPGSKPRLASSSKDGTIKIWDTVSRVCQYTMSGHTNSVSCVKWGGQGLLYSGSHDRTVRVWDINSQGRCINILKSHAHWVNHLSLSTDYALRIGAFDHTGKKPSTPEEAQKKALENYEKICKKNGNSEEMMVTASDDYTMFLWNPLKSTKPIARMTGHQKLVNHVAFSPDGRYIVSASFDNSIKLWDGRDGKFISTFRGHVASVYQVAWSSDCRLLVSCSKDTTLKVWDVRTRKLSVDLPGHKDEVYTVDWSVDGKRVCSGGKDKMVRLWTH
B5: rpL35 (protein, UniProt P0CX84 1-120)
chain: MAGVKAYELRTKSKEQLASQLVDLKKELAELKVQKLSRPSLPKIKTVRKSIACVLTVINEQQREAVRQLYKGKKYQPKDLRAKKTRALRRALTKFEASQVTEKQRKKQIAFPQRKYAIKA
B6: Nop15 (protein, UniProt P53927 1-220)
chain: MVKSTSKTSTKETVTKQPTEEKPIQEKEELALETSSSSSDEEDEKDEDEIEGLAASDDEQSGTHKIKRLNPKKQANEKKSKDKKTLEEYSGIIYVSRLPHGFHEKELSKYFAQFGDLKEVRLARNKKTGNSRHYGFLEFVNKEDAMIAQESMNNYLLMGHLLQVRVLPKGAKIEKLYKYKKRVLVEKGITKPVKQLKDNMKQKHEERIKKLAKSGIEFKW
B7: Rrs1 (protein, UniProt Q08746 1-203)
chain: MSAEDYKNLPVTVEKPIPVVYDLGNLAAFDSNVLDKNDLDSSNARREEKIKSLTRDNVQLLINQLLSLPMKTTTESVGGTGGQSSVMTLLQLPDPTTDLPREKPLPKAKAMTKWEKFAAKKGIKPKERAGKMIYDEASGEWVPKWGYKGANKKLDDQWLVEVDDKVKGTDNELIDPRTLNRAERKRLVKKNEKQQRRNMKNAL
B8: Rpf2 (protein, UniProt P36160 1-344)
chain: MIRTVKPKNARAKRALVKREAKLVENVKQALFIPGQSCNKNLHDIMVDLSALKKPDMKRFNRKNDIHPFEDMSPLEFFSEKNDCSLMVLMTSSKKRKNNMTFIRTFGYKIYDMIELMVADNFKLLSDFKKLTFTVGLKPMFTFQGAAFDTHPVYKQIKSLFLDFFRGESTDLQDVAGLQHVISMTIQGDFQDGEPLPNVLFRVYKLKSYKSDQGGKRLPRIELVEIGPRLDFKIGRIHTPSPDMVTEAHKKPKQLEMKTKKNVELDIMGDKLGRIHMGKQDLGKLQTRKMKGLKSKFDQGTEEGDGEVDEDYEDEASYSDDGQEYEEEFVSATDIEPSAKRQKK
B9: Ipi1 (protein, UniProt P38803 1-334)
chain: MTKSRKQKQKKQDFLRKKLKVGKPKEKARNATDTSFVSKTISIRNQHLDQNPHDLTKRLTLLKHHNINVRKETLTTFQKSIPSIIKSRLMTPLLTQSIPLICDESQQVRQGLIDLVDEIGSHDAEILKLHCNIFVLYINMAMTHIVTQIQADSTKFLSHLLKYCGDEVVRKSWVKLLNGVFGVLGWGQVGKNDSASIVQTKKRNAKYVTIHLNALYTLVEYGCQDERARSDGDTAETTEDSGTLRNPYLIPDYPQPFEHLKLFTRELKVQDATSSGVNATLLSLATQDIDTRKAVFIEQFLPIVRKKIEVIIKEGGECGKSANKLKTLLAKIFD

Protein sequences, listed by entry. Tags and fused reporters are not part of them. Lines headed by an entry give the natural chain unless they say otherwise; changes in a name come on top.
UniProt P02406: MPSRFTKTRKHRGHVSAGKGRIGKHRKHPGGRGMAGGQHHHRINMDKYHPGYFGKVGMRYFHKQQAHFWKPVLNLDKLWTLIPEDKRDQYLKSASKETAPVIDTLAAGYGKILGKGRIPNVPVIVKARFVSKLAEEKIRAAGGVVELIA
UniProt P53742: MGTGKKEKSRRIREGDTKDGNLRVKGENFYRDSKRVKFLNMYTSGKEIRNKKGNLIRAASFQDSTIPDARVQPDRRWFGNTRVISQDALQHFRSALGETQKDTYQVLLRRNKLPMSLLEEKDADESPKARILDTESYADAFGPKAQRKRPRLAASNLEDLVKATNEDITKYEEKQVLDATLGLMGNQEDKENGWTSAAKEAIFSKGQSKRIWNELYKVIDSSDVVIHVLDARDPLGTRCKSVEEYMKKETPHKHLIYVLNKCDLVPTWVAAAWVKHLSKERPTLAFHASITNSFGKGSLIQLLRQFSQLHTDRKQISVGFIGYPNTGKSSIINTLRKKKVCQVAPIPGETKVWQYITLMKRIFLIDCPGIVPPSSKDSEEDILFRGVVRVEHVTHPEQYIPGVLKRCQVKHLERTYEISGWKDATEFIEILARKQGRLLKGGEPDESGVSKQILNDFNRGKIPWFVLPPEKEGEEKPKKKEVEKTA
UniProt P0C0W9: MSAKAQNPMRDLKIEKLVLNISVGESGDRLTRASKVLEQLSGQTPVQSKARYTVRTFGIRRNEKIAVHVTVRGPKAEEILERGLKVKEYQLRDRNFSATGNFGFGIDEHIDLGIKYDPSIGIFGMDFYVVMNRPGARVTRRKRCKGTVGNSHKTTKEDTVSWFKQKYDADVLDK
UniProt P0C2H8: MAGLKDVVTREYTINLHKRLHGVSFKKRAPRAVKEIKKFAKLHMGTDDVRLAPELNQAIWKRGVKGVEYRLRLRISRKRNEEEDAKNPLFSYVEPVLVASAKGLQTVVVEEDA
UniProt P05738: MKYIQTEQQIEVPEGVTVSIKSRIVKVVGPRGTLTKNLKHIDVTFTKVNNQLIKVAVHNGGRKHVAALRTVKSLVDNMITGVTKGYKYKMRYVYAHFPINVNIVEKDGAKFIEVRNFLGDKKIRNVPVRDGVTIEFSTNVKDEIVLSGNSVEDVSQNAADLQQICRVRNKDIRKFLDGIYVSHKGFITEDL
UniProt P04650: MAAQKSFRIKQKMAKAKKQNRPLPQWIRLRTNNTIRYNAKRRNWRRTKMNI
UniProt P0CX82: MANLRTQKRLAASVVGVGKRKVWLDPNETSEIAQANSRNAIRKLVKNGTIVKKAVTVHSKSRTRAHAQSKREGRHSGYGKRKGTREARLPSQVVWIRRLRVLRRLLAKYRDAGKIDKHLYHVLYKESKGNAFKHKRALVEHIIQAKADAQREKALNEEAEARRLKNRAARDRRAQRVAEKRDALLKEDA
UniProt P04456: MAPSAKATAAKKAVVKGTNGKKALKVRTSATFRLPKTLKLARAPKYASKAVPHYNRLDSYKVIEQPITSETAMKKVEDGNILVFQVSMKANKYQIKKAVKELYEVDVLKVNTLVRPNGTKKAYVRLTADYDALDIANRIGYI

Molecular target: T1, Nog1-TAP (S. cerevisiae) (UniProt Q02892)
T1 sequence: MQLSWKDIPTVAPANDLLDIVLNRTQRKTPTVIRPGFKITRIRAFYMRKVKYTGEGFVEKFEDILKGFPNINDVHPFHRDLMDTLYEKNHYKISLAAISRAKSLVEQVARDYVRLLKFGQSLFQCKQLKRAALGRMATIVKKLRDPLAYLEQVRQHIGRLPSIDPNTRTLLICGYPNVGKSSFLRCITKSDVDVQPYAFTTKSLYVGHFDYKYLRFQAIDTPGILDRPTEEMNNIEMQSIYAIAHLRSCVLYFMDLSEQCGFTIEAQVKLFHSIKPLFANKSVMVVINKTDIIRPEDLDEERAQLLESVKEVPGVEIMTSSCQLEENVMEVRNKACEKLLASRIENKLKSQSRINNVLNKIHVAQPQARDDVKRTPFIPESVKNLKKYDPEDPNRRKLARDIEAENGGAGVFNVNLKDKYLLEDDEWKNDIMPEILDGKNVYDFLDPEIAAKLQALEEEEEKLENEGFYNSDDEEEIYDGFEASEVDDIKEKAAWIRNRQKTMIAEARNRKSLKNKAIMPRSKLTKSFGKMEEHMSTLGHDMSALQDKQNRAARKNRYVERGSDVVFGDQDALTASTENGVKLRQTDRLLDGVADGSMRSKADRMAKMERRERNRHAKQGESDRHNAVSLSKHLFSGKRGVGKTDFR
Assay: affinity purification with mass spectrometry; TAP-tagged LSU biogenesis factor and associated pre-ribosomal particles purified in one step from total yeast cellular extract on rabbit IgG coupled magnetic beads, 1 h at 4°C, MB buffer (20 mM Tris HCl pH 8, 200 or 300 mM KCl, 5 mM MgOAc) with 0.5% Triton X-100 and 0.1% Tween 20; eluates compared pair wise by semi-quantitative LC-MS/MS with iTRAQ reagents; for Nog1-, Nog2- and Rsa4-TAP wild type against strains in which RPL25, RPL2, RPL43 or RPL21 was shut down for 4 h in glucose

binding, binds:
rpL28 (from UniProt P02406 1-149)
rpL43 (S. cerevisiae)
Nog2 (from UniProt P53742 1-486)
rpL11 (from UniProt P0C0W9)
rpL31 (from UniProt P0C2H8)
rpL9 (from UniProt P05738)
rpL39 (from UniProt P04650 1-51)
rpL19 (from UniProt P0CX82 1-189)
rpL2 (S. cerevisiae)
rpL25 (from UniProt P04456 1-142)

Molecular target: T1, Nog1-TAP (S. cerevisiae)
Assay: as above
Remark: another data set of the same source

binding, binds:
B1
B2
B3
B4
B5

Molecular target: Nog2-TAP (S. cerevisiae) (UniProt P53742)
Assay: as above

binding, binds:
B4
B6
B7
B8
B9

Source: paper PMC3707915
